# Several values for one entry are separate records, joined by “and”; a condition that tells them apart may be missing. Identical values can stand only once. The list shows a part of the results. Single values are uncertain here, since repeats match poorly.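 HEK293T cells were given each compound shortly before transfection with a reporter in which red mCherry is followed by the SARS-CoV-2 frameshift element and then GFP in the −1 frame, so GFP appears only after frameshifting.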
# System: SARS-CoV-2 -1 PRF reporter mCherry-FSE-GFP(-1)
# Assay: mCherry (red) intensity as percent of control; higher = higher upstream reporter expression
# Settings: 10 µM; 24 h; HEK293T
row,Structure (SMILES),mCherry
1,CCCC(=O)Nc1ncnc2c1ncn2[C@@H]1O[C@@H]2COP(=O)(O)O[C@H]2[C@H]1OC(=O)CCC,112%
2,Cc1ncc(C[n+]2csc(CCO)c2C)c(N)n1 [Vitamin B1],117%
3,CC(O)C(=O)O.N (stereo not given),87.8%
4,COc1ccc2c(c1)c(CC(=O)O)c(C)n2C(=O)c1ccc(Cl)cc1 [indometacin],107% and 102%
5,CC(C)NCC(O)COc1cccc2ccccc12 (stereo not given) [dibudinate],92%
6,O=C(O)c1cc(/N=N/c2ccc(S(=O)(=O)Nc3ccccn3)cc2)ccc1O [sulfasalazine],77.3%
7,Nc1ccc2cc3ccc(N)cc3nc2c1,23.1%
8,O.O.O.O.O=C([O-])CC(O)(CC(=O)[O-])C(=O)[O-].[Li+].[Li+].[Li+],100%
9,CC1CCCC(C)N1CCCC(O)(c1ccccc1)c1ccccn1 (stereo not given) [pirmenol],94.5%
10,O=C(O)c1cc(O)c(O)c(O)c1,70.7%
11,CO[C@@]12[C@H](COC(N)=O)C3=C(C(=O)C(C)=C(N)C3=O)N1C[C@@H]1N[C@@H]12 [Mitomycin C],28.4%
12,NNc1nncc2ccccc12 [hydralazine],104%
13,CC(=O)[C@H]1CC[C@H]2[C@@H]3CCC4=CC(=O)CC[C@]4(C)[C@H]3CC[C@]12C [progesterone],90.7% and 97%
14,CC(C)(C)CC(C)(C)c1ccc(OCCOCC[N+](C)(C)Cc2ccccc2)cc1 [benzethonium chloride],27.7%
15,Cn1c(=O)c2[nH]cnc2n(C)c1=O [Aminophylline],113%
16,CN1C(C(=O)Nc2ccccn2)=C(O)c2sccc2S1(=O)=O [Tenoxicam],111% and 86.6%
17,CC1(C)[C@H](C(=O)O)N2C(=O)C[C@H]2S1(=O)=O,110%
18,"C/C=C/c1ccc(OC)cc1 [Anethole, trans-]",63.9%
19,O=C(C1CCCCC1)N1CC(=O)N2CCc3ccccc3C2C1 (stereo not given) [praziquantel],79.5% and 104%
20,C=C(CC)C(=O)c1ccc(OCC(=O)O)c(Cl)c1Cl [etacrynic acid],117% and 101%

row,Structure (SMILES),mCherry
1,CC1(C)[C@H](C(=O)O)N2C(=O)C[C@H]2S1(=O)=O [sulbactam],99.4%
2,C=C1CC[C@H](O)C/C1=C/C=C1\CCC[C@]2(C)[C@@H]([C@H](C)CCCC(C)C)CC[C@@H]12 [colecalciferol],109% and 87.7%
3,Oc1c(Cl)cc(Cl)cc1Sc1cc(Cl)cc(Cl)c1O,85.1%
4,C[C@]12CC[C@@H]3c4ccc(O)cc4CC[C@H]3[C@@H]1C[C@H](O)[C@@H]2O,109%
5,Cn1c2ncnc-2c(O)n(C)c1=O [choline theophyllinate],107%
6,COc1cc(NS(C)(=O)=O)ccc1Nc1c2ccccc2nc2ccccc12,152%
7,O=C(O)c1cccnc1 [nicotinic acid],78.2%
8,Cn1c(=O)c2c(ncn2C)n(C)c1=O,86.9%
9,NC(=O)C1CCN(CCCN2c3ccccc3Sc3ccc(Cl)cc32)CC1 [pipamazine],35.3%
10,CC(=O)Oc1c(C)c(C)c2c(c1C)CCC(C)(CCC[C@H](C)CCC[C@H](C)CCCC(C)C)O2 (stereo not given in full),100%
11,Cn1c(=O)c2nc[nH]c2n(C)c1=O,100%
12,COc1ccc(CCN(C)CCC[C@](C#N)(c2ccc(OC)c(OC)c2)C(C)C)cc1OC [dexverapamil],106%
13,NC(=O)C(c1ccccc1)(c1ccccc1)[C@@H]1CCN(CCc2ccc3c(c2)CCO3)C1 [Enablex],148%
14,C[n+]1c2cc(N)ccc2cc2ccc(N)cc21,40.2%
15,CC(C)CN(C[C@@H](O)[C@H](Cc1ccccc1)NC(=O)O[C@H]1CO[C@H]2OCC[C@H]21)S(=O)(=O)c1ccc(N)cc1 [darunavir],108%
16,Cn1c(=O)c2[nH]cnc2n(C)c1=O [aminophylline],80.5%
17,O=C(O)CCCCC(=O)O,102%
18,O=c1[nH]cnc2c1ncn2[C@H]1CC[C@@H](CO)O1 [didanosine],96.4%
19,O=C(O)c1ccccc1-c1c2ccc(=O)cc-2oc2cc(O)ccc12,99.3%
20,CCN(CC)C(=S)SSC(=S)N(CC)CC [disulfiram],42.4% and 57.7%
